# Measured values from publication PMC5996148.
# “And” between values parts separate entries of the source, which are not always exact repeats. Equal values may be shown once. Some of the results follow. For some assays here: Construct or isoform of the protein are uncertain.
# Assays:
# Test in all cases: protein microarray (ProtoArray v5.0), streptavidin-Alexa Fluor 647
# Conditions in all cases: 3'-biotin; 20 mM Tris (pH 7.5), 5 mM MgCl2, 100 mM KCl, 0.1% Tween-20, A/T-rich and random oligonucleotide blockers; temperature not stated; high values mean tight binding
# FBXO4 (human) = test system: FBXO4 (human)
# FBXO6 (human) = test system: FBXO6 (human)
# FBXO7 (human) = test system: FBXO7 (human)
# FCGR2B (human) = test system: FCGR2B (human)
# FCGR3A (human) = test system: FCGR3A (human)
# FCRL1 (human) = test system: FCRL1 (human)
# FCRL2 (human) = test system: FCRL2 (human)
# FDFT1 (human) = test system: FDFT1 (human)
# FES (human) = test system: FES (human)
# FEZ1 (human) = test system: FEZ1 (human)
# FGF1 (human) = test system: FGF1 (human)
# FGF19 (human) = test system: FGF19 (human)
# FGF21 (human) = test system: FGF21 (human)
# FGL1 (human) = test system: FGL1 (human)
# FHL3 (human) = test system: FHL3 (human)
# FKBP11 (human) = test system: FKBP11 (human)
# FKBP2 (human) = test system: FKBP2 (human)
# FKBPL = molecular target: T1, FKBPL (UniProt Q9UIM3)
# T1 sequence: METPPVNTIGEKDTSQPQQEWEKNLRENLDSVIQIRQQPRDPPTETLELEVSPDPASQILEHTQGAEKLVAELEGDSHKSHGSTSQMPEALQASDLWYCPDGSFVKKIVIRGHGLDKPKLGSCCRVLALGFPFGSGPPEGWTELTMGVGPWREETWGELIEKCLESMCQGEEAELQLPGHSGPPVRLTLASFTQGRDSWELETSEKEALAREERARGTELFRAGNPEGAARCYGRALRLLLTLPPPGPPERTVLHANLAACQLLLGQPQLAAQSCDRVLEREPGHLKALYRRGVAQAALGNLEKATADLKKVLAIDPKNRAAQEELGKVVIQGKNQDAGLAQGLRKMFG
# FLJ11171 (human) = test system: FLJ11171 (human)
# FLJ11506 (human) = test system: FLJ11506 (human)
sequence,measurement,setting,value
GGGAGGCTGAGGCAGG [G4-1 biotinylated (PQS2)],binding signal,FBXO4 (human),-0.345 z-score
same,binding signal,FBXO6 (human),-0.337 z-score
same,binding signal,FBXO7 (human),-0.241 z-score
same,binding signal,FCGR2B (human),-0.325 z-score
same,binding signal,FCGR3A (human),-0.314 z-score
same,binding signal,FCRL1 (human),-0.298 z-score
same,binding signal,FCRL2 (human),-0.328 z-score
same,binding signal,FDFT1 (human),-0.334 z-score and -0.329 z-score
same,binding signal,FES (human),-0.234 z-score
same,binding signal,FEZ1 (human),-0.315 z-score
same,binding signal,FGF1 (human),-0.279 z-score
same,binding signal,FGF19 (human),-0.305 z-score
same,binding signal,FGF21 (human),-0.284 z-score
same,binding signal,FGL1 (human),-0.327 z-score
same,binding signal,FHL3 (human),-0.297 z-score
same,binding signal,FKBP11 (human),-0.31 z-score
same,binding signal,FKBP2 (human),-0.32 z-score
same,binding signal,FKBPL,-0.346 z-score
same,binding signal,FLJ11171 (human),-0.256 z-score and -0.291 z-score
same,binding signal,FLJ11506 (human),-0.308 z-score

# Shown as tab-separated lines: entries from further up.
sequence	measurement	setting	value
GGGAGGCTGAGGCAGG [G4-1 biotinylated (PQS2)]	binding signal	FGF19 (human)	-0.305 z-score
same	binding signal	FHL3 (human)	-0.297 z-score
